Values from PubChem BioAssay AID1053208 (Peter MacCallum Cancer Centre, 2014).

- Screen: 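Find knock-downs that sensitise mouse osteosarcoma cells to doxorubicin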 (primary screen)
- Cell system: mouse osteosarcoma cells, early-passage culture from an engineered mouse model of fibroblastic bone tumour
- Reagents: siRNA pool against mouse genes, 40 nM
- Timing: about 120 h (48 h before drug, then 72 h with drug)
- Challenge: doxorubicin 100 nM for 72 h, roughly 30-40% inhibitory dose
- Detection: 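Luminescent ATP signal taken as viability with or without 100 nM doxorubicin for 72 h; mean of two wells set against non-targeting siRNA and turned into robust z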
- Direction: viability z-score with doxorubicin: higher = more viable cells under doxorubicin; viability z-score without drug: higher = more viable cells with knock-down alone
- Rule for the call: 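Called active if knock-down leaves viability unchanged without drug (z within -2 to 2) but lowers it with doxorubicin (z at or under -2)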
Here is an unselected part of about 17,000 deposited reagents. Over the whole deposit, 788 (4.7%) are marked active. 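Calls rest on z-score classes alone; an extra cut-off of viability at most 70% of control was not applied to them.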 Not all columns of the deposit are shown. No sequences are given here.

Against Uts2r, the entry reads combined z-score class no change with or without drug; viability z-score with doxorubicin 0; viability z-score without drug 0.51; inactive.
Rdh10 gave combined z-score class no change with or without drug; viability z-score with doxorubicin -0.9; viability z-score without drug -0.17; inactive.
Knock-down of Brdt resulted in: combined z-score class no change with or without drug; viability z-score with doxorubicin -1.12; viability z-score without drug 1.18; inactive.
Knock-down of Or5t7 came out at: combined z-score class no change with or without drug; viability z-score with doxorubicin -1.12; viability z-score without drug -0.34; inactive.
After knock-down of Arpc3 the results were combined z-score class no change with or without drug; viability z-score with doxorubicin 0.11; viability z-score without drug 0.17; inactive.
Silencing of Fgd3 came out at: combined z-score class no change with or without drug; viability z-score with doxorubicin 0.67; viability z-score without drug 1.01; inactive.
Knock-down of Nepn gave: combined z-score class high cell count without drug only; viability z-score with doxorubicin -0.79; viability z-score without drug 2.19; inactive.
With knock-down of Shisa4, the record shows combined z-score class no change with or without drug; viability z-score with doxorubicin -1.8; viability z-score without drug -0.84; inactive.
Against Pard3, the entry reads combined z-score class no change with or without drug; viability z-score with doxorubicin -1.35; viability z-score without drug 0.17; inactive.
Siah1a showed combined z-score class no change with or without drug; viability z-score with doxorubicin -0.9; viability z-score without drug 0.34; inactive.
Wfdc15a scored combined z-score class no change with or without drug; viability z-score with doxorubicin 1.12; viability z-score without drug 0.84; inactive.
Knock-down of Reg3d came out at: combined z-score class no change with or without drug; viability z-score with doxorubicin 0.11; viability z-score without drug -0.51; inactive.
Silencing of Tfcp2 resulted in: combined z-score class no change with or without drug; viability z-score with doxorubicin 1.35; viability z-score without drug 1.52; inactive.
Silencing of Bcl6b gave: combined z-score class no change with or without drug; viability z-score with doxorubicin 0; viability z-score without drug -0.17; inactive.
After knock-down of Zan the results were combined z-score class no change with or without drug; viability z-score with doxorubicin 1.01; viability z-score without drug 0.84; inactive.
After knock-down of Or2v2, the record shows combined z-score class no change with or without drug; viability z-score with doxorubicin -0.22; viability z-score without drug -0.67; inactive.
Against Malt1, the values are combined z-score class no change with or without drug; viability z-score with doxorubicin 0.67; viability z-score without drug 0.51; inactive.
After knock-down of Ctxn1, the record shows combined z-score class no change with or without drug; viability z-score with doxorubicin -0.56; viability z-score without drug 1.01; inactive.
Silencing of Cds1 gave: combined z-score class no change with or without drug; viability z-score with doxorubicin -1.69; viability z-score without drug -1.18; inactive.
With knock-down of Snrnp48 the results were combined z-score class no change with or without drug; viability z-score with doxorubicin 0.22; viability z-score without drug 1.18; inactive.
With knock-down of Ogfod3, the screen gave combined z-score class no change with or without drug; viability z-score with doxorubicin -1.57; viability z-score without drug -0.34; inactive.
For Spry2, the entry reads combined z-score class no change with or without drug; viability z-score with doxorubicin 0.67; viability z-score without drug 0.67; inactive.
Silencing of Nell2 came out at: combined z-score class no change with or without drug; viability z-score with doxorubicin 0.79; viability z-score without drug -0.51; inactive.
Knock-down of Fimp1 resulted in: combined z-score class no change with or without drug; viability z-score with doxorubicin 0.22; viability z-score without drug 1.69; inactive.
Against Cd207, the entry reads combined z-score class no change with or without drug; viability z-score with doxorubicin -1.35; viability z-score without drug 0.51; inactive.
Against Or4g16, the entry reads combined z-score class no change with or without drug; viability z-score with doxorubicin -0.11; viability z-score without drug -1.18; inactive.
Against Cnn2, the values are combined z-score class low cell count with doxorubicin only; viability z-score with doxorubicin -2.47; viability z-score without drug -0.51; active.
Knock-down of Fbxo44 came out at: combined z-score class no change with or without drug; viability z-score with doxorubicin 1.35; viability z-score without drug 0.51; inactive.

Records listed so far whose gene name begins with N or n (2):
Nepn — combined z-score class = high cell count without drug only; viability z-score with doxorubicin = -0.79; viability z-score without drug = 2.19; outcome = inactive
Nell2 — combined z-score class = no change with or without drug; viability z-score with doxorubicin = 0.79; viability z-score without drug = -0.51; outcome = inactive
